Source: US20190135888A1
Results are given in words; binding and its absence hold for the method and conditions named. Some results given as binding are weak or reduced against the parent protein; the word gives no strength.

Sequences of proteins named here, by UniProt entry; tags and fusion partners are left off. Residues count along the entry.
UniProt P47871, residues 26-136: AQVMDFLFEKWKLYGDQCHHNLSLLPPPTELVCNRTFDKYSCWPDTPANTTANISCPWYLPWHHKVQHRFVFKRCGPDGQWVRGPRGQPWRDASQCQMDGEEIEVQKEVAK

What was measured:
[1] = molecular target: glucagon; test: biolayer interferometry (BLItz), unlabelled aP2 on biotin-glucagon on streptavidin probes, traces with fitted lines
[2] = molecular target: glucagon; test: microscale thermophoresis instrument, temperature jump (LED:30%, MST Power:20%), aP2 and glucagon by the legend
[3] = molecular target: glucagon; test: pull-down (IP glucagon against IP control), immunoblot for aP2
[4] = molecular target: glucagon; test: microscale thermophoresis (LED:30%, MST Power 20%), FABP4 and glucagon by the legend
[5] = molecular target: glucagon; test: pull-down with glucagon peptides (Gluc1-29, Gluc22-29), Western blot; the blotting antibody is not printed on the sheet
[6] = molecular target: GCGR extracellular domain (GCGR-ecd) (UniProt P47871); test: microscale thermophoresis (LED:40%, MST Power:30%), GCGR-ECD with tag and hFABP4 by the legend
[7] = molecular target: GCGR extracellular domain (GCGR-ecd) (UniProt P47871); test: microscale thermophoresis + T-jump (LED:80%, MST Power:70%), GCGR-ECD without tag and hFABP4 by the legend

Measured: binding

B1: aP2 (recombinant aP2 of Example 1) (protein)
chain: MCDAFVGTWKLVSSENFDDYMKEVGVGFATRKVAGMAKPNMIISVNGDLVTIRSESTFKNTEISFKLGVEFDEITADDRKVKSIITLDGGALVQVQKWDGKSTTIKRKRDGDKLVVECVMKGVTSTRVYERA
not listed: [6] | [7]
binds: all other assays above

B2: human aP2 (fatty acid-binding protein, adipocyte, FABP4/aP2, Homo sapiens) (protein)
chain: CDAFVGTWKLVSSENFDDYMKEVGVGFATRKVAGMAKPNMIISVNGDVITIKSESTFKNTEISFILGQEFDEVTADDRKVKSTITLDGGVLVHVQKWDGKSTTIKRKREDDKLVVECVMKGVTSTRVYERA
binds: [6] | [7]
